PubChem BioAssay AID1224830, NIAID – 2016

Purpose: 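Genes whose knock-down alters the TNF-alpha reporter response to LPS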 (primary screen)
System: human THP-1 monocytic leukaemia cells, TNF dual-luciferase reporter clone, PMA-differentiated to macrophage-like cells
Reagent: siRNA pool against human genes, 50 nM
Duration: LPS for 4 h, given about 3 days after siRNA transfection
Challenge: bacterial LPS (TLR4 ligand), 10 ng/ml
Detection: 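Ratio of firefly to renilla light, scaled to the plate median and expressed as a robust z-score per replicate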
Scale: TNF reporter robust z-score: higher = stronger TNF reporter response to LPS
Active means: 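a well is active when its z-score exceeds 2.8 or falls below -1.5; control wells carry no call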
This is one part, drawn at random, of about 18,000 reagents. About 2,900 of them (16%) count as active. 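Calls are made per well; low scores hint the gene aids the LPS response, high scores that it dampens it.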 Unmarked entries are inactive. Repeated entries: four replicate wells of each siRNA pool.

MTTP (microsomal triglyceride transfer protein) — TNF reporter robust z-score: -0.26
MTTP (microsomal triglyceride transfer protein) — TNF reporter robust z-score: 0.99
MTTP (microsomal triglyceride transfer protein) — TNF reporter robust z-score: 0.77
MTTP (microsomal triglyceride transfer protein) — TNF reporter robust z-score: 0.4
DNAJC14 (DnaJ heat shock protein family (Hsp40) member C14) — TNF reporter robust z-score: 0.14
DNAJC14 (DnaJ heat shock protein family (Hsp40) member C14) — TNF reporter robust z-score: 0.12
DNAJC14 (DnaJ heat shock protein family (Hsp40) member C14) — TNF reporter robust z-score: -0.45
DNAJC14 (DnaJ heat shock protein family (Hsp40) member C14) — TNF reporter robust z-score: 1.07
KLHL11 (kelch like family member 11) — TNF reporter robust z-score: -0.92
KLHL11 (kelch like family member 11) — TNF reporter robust z-score: -1.17
KLHL11 (kelch like family member 11) — TNF reporter robust z-score: -0.81
SLC16A8 — TNF reporter robust z-score: -1.22
SLC16A8 — TNF reporter robust z-score: -1.09
SLC16A8 — TNF reporter robust z-score: -0.7
KDM3A (lysine demethylase 3A) — TNF reporter robust z-score: 0.05
KDM3A (lysine demethylase 3A) — TNF reporter robust z-score: 0.07
KDM3A (lysine demethylase 3A) — TNF reporter robust z-score: -0.74
KDM3A (lysine demethylase 3A) — TNF reporter robust z-score: -0.2
DSCAML1 (DS cell adhesion molecule like 1) — TNF reporter robust z-score: 0.47
DSCAML1 (DS cell adhesion molecule like 1) — TNF reporter robust z-score: 1.28
DSCAML1 (DS cell adhesion molecule like 1) — TNF reporter robust z-score: 0.25
DSCAML1 (DS cell adhesion molecule like 1) — TNF reporter robust z-score: 0.22
MMP26 (matrix metallopeptidase 26) — TNF reporter robust z-score: 0.32
MMP26 (matrix metallopeptidase 26) — TNF reporter robust z-score: -0.25
MMP26 (matrix metallopeptidase 26) — TNF reporter robust z-score: -0.66
MMP26 (matrix metallopeptidase 26) — TNF reporter robust z-score: -0.32
DBX2 (developing brain homeobox 2) — TNF reporter robust z-score: -1.17
DBX2 (developing brain homeobox 2) — TNF reporter robust z-score: -0.81
DBX2 (developing brain homeobox 2) — TNF reporter robust z-score: -0.71
DBX2 (developing brain homeobox 2) — TNF reporter robust z-score: -0.61
OR2AE1 (olfactory receptor family 2 subfamily AE member 1) — TNF reporter robust z-score: -0.03
OR2AE1 (olfactory receptor family 2 subfamily AE member 1) — TNF reporter robust z-score: 0.23
OR2AE1 (olfactory receptor family 2 subfamily AE member 1) — TNF reporter robust z-score: 0.33
OR2AE1 (olfactory receptor family 2 subfamily AE member 1) — TNF reporter robust z-score: 0.71
CXCR4 (C-X-C motif chemokine receptor 4) — TNF reporter robust z-score: -1.55 (active)
CXCR4 (C-X-C motif chemokine receptor 4) — TNF reporter robust z-score: -1.16
CXCR4 (C-X-C motif chemokine receptor 4) — TNF reporter robust z-score: -1.74 (active)
CXCR4 (C-X-C motif chemokine receptor 4) — TNF reporter robust z-score: -1.7 (active)
UBE2D4 (ubiquitin conjugating enzyme E2 D4) — TNF reporter robust z-score: 0.41
UBE2D4 (ubiquitin conjugating enzyme E2 D4) — TNF reporter robust z-score: 0.72
UBE2D4 (ubiquitin conjugating enzyme E2 D4) — TNF reporter robust z-score: 0
UBE2D4 (ubiquitin conjugating enzyme E2 D4) — TNF reporter robust z-score: 0.09
USP43 (ubiquitin specific peptidase 43) — TNF reporter robust z-score: 0.84
USP43 (ubiquitin specific peptidase 43) — TNF reporter robust z-score: 0.51
USP43 (ubiquitin specific peptidase 43) — TNF reporter robust z-score: -0.39
USP43 (ubiquitin specific peptidase 43) — TNF reporter robust z-score: -0.49
ZNF749 (zinc finger protein 749) — TNF reporter robust z-score: -0.12
ZNF749 (zinc finger protein 749) — TNF reporter robust z-score: -0.17
ZNF749 (zinc finger protein 749) — TNF reporter robust z-score: -0.45
ZNF749 (zinc finger protein 749) — TNF reporter robust z-score: -0.26
CELA3B (chymotrypsin like elastase 3B) — TNF reporter robust z-score: -0.07
CELA3B (chymotrypsin like elastase 3B) — TNF reporter robust z-score: 0.74
CELA3B (chymotrypsin like elastase 3B) — TNF reporter robust z-score: 1.14
CELA3B (chymotrypsin like elastase 3B) — TNF reporter robust z-score: 0.16
UQCRFS1 — TNF reporter robust z-score: -0.34
UQCRFS1 — TNF reporter robust z-score: 0.12
UQCRFS1 — TNF reporter robust z-score: -0.33
UQCRFS1 — TNF reporter robust z-score: -0.31
RADX (RPA1 related single stranded DNA binding protein, X-linked) — TNF reporter robust z-score: -0.04
RADX (RPA1 related single stranded DNA binding protein, X-linked) — TNF reporter robust z-score: -0.56
RADX (RPA1 related single stranded DNA binding protein, X-linked) — TNF reporter robust z-score: 1.06
RADX (RPA1 related single stranded DNA binding protein, X-linked) — TNF reporter robust z-score: 1.33

Entries above whose gene name starts with M or m:
MTTP (microsomal triglyceride transfer protein) — TNF reporter robust z-score: -0.26
MTTP (microsomal triglyceride transfer protein) — TNF reporter robust z-score: 0.99
MTTP (microsomal triglyceride transfer protein) — TNF reporter robust z-score: 0.77
MTTP (microsomal triglyceride transfer protein) — TNF reporter robust z-score: 0.4
MMP26 (matrix metallopeptidase 26) — TNF reporter robust z-score: 0.32
MMP26 (matrix metallopeptidase 26) — TNF reporter robust z-score: -0.25
MMP26 (matrix metallopeptidase 26) — TNF reporter robust z-score: -0.66
MMP26 (matrix metallopeptidase 26) — TNF reporter robust z-score: -0.32
